Results taken from article doi:10.1101/2021.11.18.469142.
Read-outs that look alike come from different tables or passages of the source. No constants are given. Whether binding was seen depends on the method and setting. For some of these results: Binding seen in cells or lysates may run through a third protein. Some binding calls cover weakened binding; strength is not graded here. Tags and fused reporters may be left off the sequences shown.

Sequences of proteins named here, by UniProt entry; tags and fusion partners are left off.
UniProt Q15672: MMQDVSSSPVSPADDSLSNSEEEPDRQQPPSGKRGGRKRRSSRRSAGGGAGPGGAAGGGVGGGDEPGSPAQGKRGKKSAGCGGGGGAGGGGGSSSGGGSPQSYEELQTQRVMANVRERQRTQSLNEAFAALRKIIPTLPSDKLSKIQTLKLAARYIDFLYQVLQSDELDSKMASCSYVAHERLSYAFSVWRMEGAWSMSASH

T1: His-SLUG (UniProt O43623)
T1 sequence: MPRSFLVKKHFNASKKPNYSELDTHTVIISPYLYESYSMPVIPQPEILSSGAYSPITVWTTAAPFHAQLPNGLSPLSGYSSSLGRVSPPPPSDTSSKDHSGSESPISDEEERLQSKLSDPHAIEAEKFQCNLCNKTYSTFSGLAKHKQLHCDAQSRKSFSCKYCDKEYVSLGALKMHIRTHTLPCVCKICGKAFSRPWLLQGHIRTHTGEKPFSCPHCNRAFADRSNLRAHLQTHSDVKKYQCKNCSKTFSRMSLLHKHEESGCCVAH

B1: GST-SETD6 (SET domain-containing protein 6) (enzyme, UniProt Q8TBK2 1-473)
chain: MATQAKRPRVAGPVDGGDLDPVACFLSWCRRVGLELSPKVSERAGGRRTRGGARAALTSPPAQVAVSRQGTVAGYGMVARESVQAGELLFVVPRAALLSQHTCSIGGLLERERVALQSQSGWVPLLLALLHELQAPASRWRPYFALWPELGRLEHPMFWPEEERRCLLQGTGVPEAVEKDLANIRSEYQSIVLPFMEAHPDLFSLRVRSLELYHQLVALVMAYSFQEPLEEEEDEKEPNSPVMVPAADILNHLANHNANLEYSANCLRMVATQPIPKGHEIFNTYGQMANWQLIHMYGFVEPYPDNTDDTADIQMVTVREAALQGTKTEAERHLVYERWDFLCKLEMVGEEGAFVIGREEVLTEEELTTTLKVLCMPAEEFRELKDQDGGGDDKREEGSLTITNIPKLKASWRQLLQNSVLLTLQTYATDLKTDQGLLSNKEVYAKLSWREQQALQVRYGQKMILHQLLELTS
B2: HA-SETD6 (enzyme, UniProt Q8TBK2 1-473)
chain: B1 chain

Columns and labels:
His-SLUG = target: T1, His-SLUG; assay: ELISA
His-TWIST1 WT (human) = His-TWIST1 WT (human) (UniProt Q15672); assay: ELISA
FLAG-TWIST1 WT (human) [1] = target: FLAG-TWIST1 WT (human) (UniProt Q15672); assay: co-IP
FLAG-TWIST1 WT (human) [2] = target: FLAG-TWIST1 WT (human) (UniProt Q15672); assay: co-IP; remark: listed apart in the source

Row | Binder | binding (His-SLUG) | binding (His-TWIST1 WT (human)) | binding (FLAG-TWIST1 WT (human) [1]) | binding (FLAG-TWIST1 WT (human) [2])
1 | B1 | binds | binds | – | –
2 | B2 | – | – | binds | binds
